PubChem BioAssay AID743121, NCATS, 2013

Test: 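Genes whose silencing strengthens cell killing by camptothecin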 (primary screen)
Cell system: MDA-MB-231 cells, a human breast cancer line
Reagents: single siRNA against human genes, 20 nM siRNA (0.8 pmol per well)
Timing: 120 h (drug added 48 h after transfection, read 72 h later)
Treatment: camptothecin 20 nM (about EC30) for 72 h; vehicle 0.1% DMSO in parallel plates
Read-out: 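CellTiter-Glo ATP signal, scaled to control siRNA as percent viability; sensitisation given as log2 of untreated divided by camptothecin-treated viability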
Reading the numbers: log2 vehicle/camptothecin viability: higher = stronger sensitisation to camptothecin
Rule for the call: 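Active genes have an RSA gene-level p-value below 0.001, computed from the ratios of their separate siRNAs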
Here is an unselected part of about 26,000 reagents tested. In the full data, 167 (0.63%) are marked active. 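Calls are per gene from RSA p-values that are not deposited; an individual active-marked siRNA can sensitise only weakly.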 A number with no mark means an inactive call. Reagents against one gene are numbered here. Further read-outs or replicates are left out here. No sequences are given here.

PTGES (prostaglandin E synthase) #1 gave log2 vehicle/camptothecin viability -0.264.
With knock-down of PTGES (prostaglandin E synthase) #2, the screen gave log2 vehicle/camptothecin viability -0.000926.
PTGES (prostaglandin E synthase) #3 scored log2 vehicle/camptothecin viability -0.314.
PTGES (prostaglandin E synthase) #4 scored log2 vehicle/camptothecin viability 0.214.
With knock-down of ACACB (acetyl-CoA carboxylase beta) #1 the results were log2 vehicle/camptothecin viability 0.844.
Against ACACB (acetyl-CoA carboxylase beta) #2, the values are log2 vehicle/camptothecin viability -0.431.
After knock-down of ACACB (acetyl-CoA carboxylase beta) #3 the results were log2 vehicle/camptothecin viability -0.477.
After knock-down of ACACB (acetyl-CoA carboxylase beta) #4, the screen gave log2 vehicle/camptothecin viability -0.104.
Against DCLK3 (doublecortin like kinase 3) #1, the entry reads log2 vehicle/camptothecin viability -0.154.
Against DCLK3 (doublecortin like kinase 3) #2 the deposit lists log2 vehicle/camptothecin viability 0.41.
DCLK3 (doublecortin like kinase 3) #3 gave log2 vehicle/camptothecin viability -0.384.
DCLK3 (doublecortin like kinase 3) #4 showed log2 vehicle/camptothecin viability -0.507.
Depletion of ALDH6A1 (aldehyde dehydrogenase 6 family member A1) #1 gave: log2 vehicle/camptothecin viability 0.421.
Against ALDH6A1 (aldehyde dehydrogenase 6 family member A1) #2, the entry reads log2 vehicle/camptothecin viability -0.211.
After knock-down of ALDH6A1 (aldehyde dehydrogenase 6 family member A1) #3, the screen gave log2 vehicle/camptothecin viability -0.297.
Depletion of ALDH6A1 (aldehyde dehydrogenase 6 family member A1) #4 came out at: log2 vehicle/camptothecin viability 0.18.
SYNJ2 (synaptojanin 2) #1 scored log2 vehicle/camptothecin viability -0.309.
After knock-down of SYNJ2 (synaptojanin 2) #2, the screen gave log2 vehicle/camptothecin viability -0.243.
Against SYNJ2 (synaptojanin 2) #3 the deposit lists log2 vehicle/camptothecin viability -0.396.
For SYNJ2 (synaptojanin 2) #4, the entry reads log2 vehicle/camptothecin viability -0.395.
With knock-down of P2RY8 (P2Y receptor family member 8) #1, the screen gave log2 vehicle/camptothecin viability -0.319.
P2RY8 (P2Y receptor family member 8) #2 showed log2 vehicle/camptothecin viability -0.274.
After knock-down of P2RY8 (P2Y receptor family member 8) #3, the screen gave log2 vehicle/camptothecin viability -0.438.
P2RY8 (P2Y receptor family member 8) #4 scored log2 vehicle/camptothecin viability 0.225.
Silencing of PHF20 (PHD finger protein 20) #1 gave: log2 vehicle/camptothecin viability 0.0353.
For PHF20 (PHD finger protein 20) #2, the values are log2 vehicle/camptothecin viability -0.293.
Against PHF20 (PHD finger protein 20) #3, the values are log2 vehicle/camptothecin viability -0.348.
Silencing of SLC12A1 #1 gave: log2 vehicle/camptothecin viability 0.212.
After knock-down of SLC12A1 #2 the results were log2 vehicle/camptothecin viability -0.0638.
After knock-down of SLC12A1 #3 the results were log2 vehicle/camptothecin viability 0.0243.
Against SLC12A1 #4, the entry reads log2 vehicle/camptothecin viability 0.237.
Silencing of COMMD5 (COMM domain containing 5) #1 resulted in: log2 vehicle/camptothecin viability 0.0322.
Depletion of COMMD5 (COMM domain containing 5) #2 resulted in: log2 vehicle/camptothecin viability -0.167.
COMMD5 (COMM domain containing 5) #3 gave log2 vehicle/camptothecin viability -0.0633.
Silencing of COMMD5 (COMM domain containing 5) #4 gave: log2 vehicle/camptothecin viability -0.427.

Sorted by “log2 vehicle/camptothecin viability” (high to low): 5 of the entries above.
SLC12A1 #4 — log2 vehicle/camptothecin viability: 0.237
COMMD5 (COMM domain containing 5) #1 — log2 vehicle/camptothecin viability: 0.0322
SLC12A1 #3 — log2 vehicle/camptothecin viability: 0.0243
COMMD5 (COMM domain containing 5) #3 — log2 vehicle/camptothecin viability: -0.0633
COMMD5 (COMM domain containing 5) #2 — log2 vehicle/camptothecin viability: -0.167
